Data as given in patent US20050164323A1, “Methods of treating asthma” (Wyeth, priority 2003, published 2005).
The name of at least one read-out is uncertain.

Amino acid sequences for entries named in this document (tags omitted). Chains listed by the source or under a name are the forms on record and can include a tag or linker.
UniProt Q04759, with tags, fused parts or gaps: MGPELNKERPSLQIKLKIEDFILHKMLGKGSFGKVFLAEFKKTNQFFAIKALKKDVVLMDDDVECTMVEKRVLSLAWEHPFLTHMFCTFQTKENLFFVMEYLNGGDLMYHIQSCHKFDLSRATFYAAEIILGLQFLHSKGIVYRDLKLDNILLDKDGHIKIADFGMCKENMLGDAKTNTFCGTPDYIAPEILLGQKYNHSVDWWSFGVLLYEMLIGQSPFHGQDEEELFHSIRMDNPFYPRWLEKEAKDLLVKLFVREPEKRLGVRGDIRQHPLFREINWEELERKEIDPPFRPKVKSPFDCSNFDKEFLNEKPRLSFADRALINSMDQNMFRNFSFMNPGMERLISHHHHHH

Experiments:
PKC-θ KD [1] = target: T1, PKC-θ KD (Homo sapiens, UniProt Q04759); experiment: coupled PK/LDH assay: steady-state kinetics, product and dead-end inhibition of PKC-θ KD; assay type: biochemical; settings: varied peptide substrate, saturating ATP
T1 construct: PKC-θ KD (amino acid residues 362 to 706) was cloned into a pET16b expression vector; hexa-histidine (C); Met-Gly (non-native N-terminal residues) (N); made in house; host or cells: E. coli BL21-DE3 (pET16b)

PKC-θ KD [2] = target: T1, PKC-θ KD; experiment: solvent viscosity studies (sucrose, Ficoll 400) on steady state kinetic parameters; assay type: biochemical; settings: at either ionic strength (100 mM and 250 mM NaCl), 2.0 mM ATP
Description: Next, solvent viscosity studies were performed. Steady state kinetic parameters were determined in the buffer described above for the enzyme kinetics assays containing varied sucrose (0-35%) or Ficoll 400 (0-8%). Relative solvent viscosities (η^ref) were determined in triplicate relative to 25 mM HEPES pH 7.5, 10 mM MgCl2, 2 mM DTT and 100 mM NaCl at 25° C. using an Ostwald viscometer. Buffer with no viscogen is indicated with a superscript of 0. The coupling enzyme system was unaffected by the presence of these viscogens. Thio effect studies with ATPγS and product inhibition studies with ADP were analyzed on a Hewlett Packard series 1100 HPLC using a Phenomenex Auga […] C18 124 A^0 50 mm×4.60 […] column (00B-4299-E0). Phosphorylated peptide was separated from non-phosphorylated peptide using a gradient of 0% to 100% 20 mM phosphate pH 8.8/acetonitrile (50/50). The fluorescein-labeled peptide was detected by excitation at 485 nm and monitoring the fluorescence emission at 530 nm.
To determine if the chemical step is the lone contributor to the rate of the reaction, the effect of solvent viscosity on the steady state kinetic parameters for PKC-θ was determined. Two types of viscogens were employed in this study, the microviscogen sucrose and the macroviscogen Ficoll-400. […]

LKRSLSEM [peptide3, substrate derived from the phosphorylation site in serum response factor]
kcat/Km (PKC-θ KD [1]): 51 000 M^−1s^−1 | solvent viscosity effect on kcat/Km (PKC-θ KD [2]): no solvent viscosity effect
